The match of structure and compound is tentative.
Biological target: GPR40 (Homo sapiens, UniProt O14842)
Experiment: GPR40 SAR Primary Assay (Elk-1/Gal4-luc+ reporter, luciferase activity)
Conditions: Table 1, compounds made on Wang resin; assay not given, taken as GPR40 primary assay
Protocol: An existing stable GPR40 Elk-1/Gal4-luc^+ CHO cell line generated by electroporation and functional cloning was used. Cells were maintained in a humidified incubator at 37° C./5% CO2 in complete media containing DMEM/F12 (Gibco, #11039-021), 5% FBS (Gibco, #16140-071) and 1% Glutamine (Gibco, #25030-081). Cell maintenance passages were made at 1:40 dilution every 3-4 days. Forty eight hours prior to assay, 15e6 cells were added to 200 ml of complete media then seeded into a 1200 cm^2-cell factory and returned to a humidified incubator at 37° C./5% CO2. 20 hours prior to assay, the growth media was removed and replaced with 200 ml of serum-free DMEM/F12 to quiesce background activity. At the time of assay, cells were harvested using non-enzymatic cell dissociation solution (Sigma, #C-5914), washed and counted. The 20 hour starve media was collected and used as condition media for cell assay plating. Cells were plated at a concentration of 10,000 cells/well in a total well volume of […] in black 96-well clear bottom polystyrene plates (CoStar, #3904). Test compounds were prepared as serial dilutions in 100% DMSO, then 1 ul was delivered to each well resulting in a final concentration of 1% DMSO. […] Luciferase activity was measured on a Packard TopCount™ microplate scintillation counter using 2 seconds per well count time. […]
A percent max response and pEC50 were recorded for each compound. […]

By UniProt entry, the sequences of proteins in these tests, tags left out.
UniProt O14842, whole entry: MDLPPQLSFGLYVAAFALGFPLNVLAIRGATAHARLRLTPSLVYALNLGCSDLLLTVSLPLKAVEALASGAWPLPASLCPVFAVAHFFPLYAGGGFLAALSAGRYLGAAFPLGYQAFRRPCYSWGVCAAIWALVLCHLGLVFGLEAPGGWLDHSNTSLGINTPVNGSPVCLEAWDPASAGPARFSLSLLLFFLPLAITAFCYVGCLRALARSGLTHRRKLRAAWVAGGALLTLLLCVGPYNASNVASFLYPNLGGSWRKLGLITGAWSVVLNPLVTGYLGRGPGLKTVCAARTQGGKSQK

pEC50	Structure (SMILES)
7.5	O=C(O)C1CC1c1ccc(NCc2ccc(-c3ccccc3)cc2)cc1 (centres unmarked)
7.4	O=C(O)C1CC1c1ccc(NCc2cccc(Oc3ccccc3)c2)cc1 (centres unmarked)
